Results from patent US20160289745A1, “NUCLEIC ACID ASSAY FOR DIAGNOSING OR […] PATHOGEN INFECTION IN A BODILY FLUID FROM A SUBJECT TREATED WITH AN ANTI-[…]” (priority 2012, published 2016).
For at least one compound, name, drawing or mass did not settle the structure.

Test system: MTC strain (Mycobacterium tuberculosis)
Assay: Drug susceptibility testing of the patient's MTC strain
Type: cell-based
Settings: MTC strain of patient 21

CO[C@H]1/C=C/O[C@@]2(C)Oc3c(C)c(O)c4c(O)c(c(/C=N/N5CCN(C)CC5)c(O)c4c3C2=O)NC(=O)/C(C)=C\C=C\[C@H](C)[C@H](O)[C@@H](C)[C@@H](O)[C@@H](C)[C@H](OC(C)=O)[C@@H]1C [Rifampicin]
drug susceptibility testing result: resistance
